The list shows a part of the results. The data scatter; read single values as rough.
compound: ClCC(=O)N[C@H]1CCCc2ccccc12; assay: log2 mean competition ratio of IA-DTB cysteine labelling (DMSO/compound) (log2 ratio); higher = stronger cysteine engagement by compound; details: 200 µM; treatment time: 4 h; cell line lysate: HEK293T
Experimental: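 IA-DTB competitive cysteine chemoproteomics in HEK293T RIPA lysate. Lysates were treated with compound 29 or 30 at 50 or 200 µM for 4 h, then IA-DTB (500 µM, 1 h), trypsin-digested, NeutrAvidin-enriched and analysed by diaPASEF. Competition ratio = intensity DMSO / intensity compound (n=4 treated, n=64 DMSO); binding: mean log2 CR ≥ 1 and p ≤ 0.05 plus QC filters. Target is the cysteine site.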

Sequences of proteins named here, by UniProt entry; tags and fusion partners are left off. A change or cut given only in a name is not applied to a line headed by its entry.
UniProt A3KMH1: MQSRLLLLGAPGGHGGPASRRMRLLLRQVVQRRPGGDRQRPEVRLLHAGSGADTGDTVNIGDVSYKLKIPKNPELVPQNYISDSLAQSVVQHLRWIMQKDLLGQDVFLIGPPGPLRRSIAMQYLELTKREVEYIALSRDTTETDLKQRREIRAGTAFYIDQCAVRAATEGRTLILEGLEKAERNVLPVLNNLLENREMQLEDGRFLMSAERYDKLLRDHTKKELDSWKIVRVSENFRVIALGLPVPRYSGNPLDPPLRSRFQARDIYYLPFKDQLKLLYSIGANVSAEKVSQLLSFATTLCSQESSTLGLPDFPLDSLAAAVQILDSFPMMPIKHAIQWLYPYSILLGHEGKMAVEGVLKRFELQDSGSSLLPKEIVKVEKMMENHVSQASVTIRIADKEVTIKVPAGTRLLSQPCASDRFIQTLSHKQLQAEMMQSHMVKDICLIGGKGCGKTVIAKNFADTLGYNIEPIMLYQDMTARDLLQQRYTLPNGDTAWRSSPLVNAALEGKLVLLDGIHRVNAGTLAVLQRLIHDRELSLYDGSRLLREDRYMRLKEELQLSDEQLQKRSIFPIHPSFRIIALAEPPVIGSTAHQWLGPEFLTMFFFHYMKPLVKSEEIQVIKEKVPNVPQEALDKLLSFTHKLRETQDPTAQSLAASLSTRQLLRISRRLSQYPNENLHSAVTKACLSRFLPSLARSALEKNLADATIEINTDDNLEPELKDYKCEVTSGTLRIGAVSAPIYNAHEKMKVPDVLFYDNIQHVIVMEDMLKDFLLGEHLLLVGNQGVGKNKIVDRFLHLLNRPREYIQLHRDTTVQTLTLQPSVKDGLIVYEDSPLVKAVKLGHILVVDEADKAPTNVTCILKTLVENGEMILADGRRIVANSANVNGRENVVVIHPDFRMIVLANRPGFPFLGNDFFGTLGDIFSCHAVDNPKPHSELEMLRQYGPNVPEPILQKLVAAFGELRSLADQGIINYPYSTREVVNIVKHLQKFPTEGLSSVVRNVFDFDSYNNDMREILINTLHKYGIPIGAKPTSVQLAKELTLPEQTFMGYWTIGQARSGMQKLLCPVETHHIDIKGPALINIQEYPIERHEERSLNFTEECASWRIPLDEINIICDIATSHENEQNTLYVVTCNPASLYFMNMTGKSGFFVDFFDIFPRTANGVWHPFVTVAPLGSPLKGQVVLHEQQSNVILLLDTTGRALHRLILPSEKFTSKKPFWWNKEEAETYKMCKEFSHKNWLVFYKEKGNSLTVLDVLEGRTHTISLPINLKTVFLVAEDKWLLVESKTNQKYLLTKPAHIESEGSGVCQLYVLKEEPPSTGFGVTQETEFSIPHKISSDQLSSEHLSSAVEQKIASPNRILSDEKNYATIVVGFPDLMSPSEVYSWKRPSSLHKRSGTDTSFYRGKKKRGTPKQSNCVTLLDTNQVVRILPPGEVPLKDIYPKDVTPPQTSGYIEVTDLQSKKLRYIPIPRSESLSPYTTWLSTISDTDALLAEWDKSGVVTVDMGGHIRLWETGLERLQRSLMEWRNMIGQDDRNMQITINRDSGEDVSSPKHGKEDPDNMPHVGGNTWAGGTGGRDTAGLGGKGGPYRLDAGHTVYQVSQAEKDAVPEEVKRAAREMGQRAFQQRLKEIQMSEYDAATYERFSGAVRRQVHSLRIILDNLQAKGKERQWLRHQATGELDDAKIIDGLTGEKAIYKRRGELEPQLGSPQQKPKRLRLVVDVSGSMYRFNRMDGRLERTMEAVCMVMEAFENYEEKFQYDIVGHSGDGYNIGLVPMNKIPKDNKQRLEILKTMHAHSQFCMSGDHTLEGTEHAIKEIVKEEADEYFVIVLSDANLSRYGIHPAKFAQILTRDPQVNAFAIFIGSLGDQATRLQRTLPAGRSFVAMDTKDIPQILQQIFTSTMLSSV
UniProt Q2M389: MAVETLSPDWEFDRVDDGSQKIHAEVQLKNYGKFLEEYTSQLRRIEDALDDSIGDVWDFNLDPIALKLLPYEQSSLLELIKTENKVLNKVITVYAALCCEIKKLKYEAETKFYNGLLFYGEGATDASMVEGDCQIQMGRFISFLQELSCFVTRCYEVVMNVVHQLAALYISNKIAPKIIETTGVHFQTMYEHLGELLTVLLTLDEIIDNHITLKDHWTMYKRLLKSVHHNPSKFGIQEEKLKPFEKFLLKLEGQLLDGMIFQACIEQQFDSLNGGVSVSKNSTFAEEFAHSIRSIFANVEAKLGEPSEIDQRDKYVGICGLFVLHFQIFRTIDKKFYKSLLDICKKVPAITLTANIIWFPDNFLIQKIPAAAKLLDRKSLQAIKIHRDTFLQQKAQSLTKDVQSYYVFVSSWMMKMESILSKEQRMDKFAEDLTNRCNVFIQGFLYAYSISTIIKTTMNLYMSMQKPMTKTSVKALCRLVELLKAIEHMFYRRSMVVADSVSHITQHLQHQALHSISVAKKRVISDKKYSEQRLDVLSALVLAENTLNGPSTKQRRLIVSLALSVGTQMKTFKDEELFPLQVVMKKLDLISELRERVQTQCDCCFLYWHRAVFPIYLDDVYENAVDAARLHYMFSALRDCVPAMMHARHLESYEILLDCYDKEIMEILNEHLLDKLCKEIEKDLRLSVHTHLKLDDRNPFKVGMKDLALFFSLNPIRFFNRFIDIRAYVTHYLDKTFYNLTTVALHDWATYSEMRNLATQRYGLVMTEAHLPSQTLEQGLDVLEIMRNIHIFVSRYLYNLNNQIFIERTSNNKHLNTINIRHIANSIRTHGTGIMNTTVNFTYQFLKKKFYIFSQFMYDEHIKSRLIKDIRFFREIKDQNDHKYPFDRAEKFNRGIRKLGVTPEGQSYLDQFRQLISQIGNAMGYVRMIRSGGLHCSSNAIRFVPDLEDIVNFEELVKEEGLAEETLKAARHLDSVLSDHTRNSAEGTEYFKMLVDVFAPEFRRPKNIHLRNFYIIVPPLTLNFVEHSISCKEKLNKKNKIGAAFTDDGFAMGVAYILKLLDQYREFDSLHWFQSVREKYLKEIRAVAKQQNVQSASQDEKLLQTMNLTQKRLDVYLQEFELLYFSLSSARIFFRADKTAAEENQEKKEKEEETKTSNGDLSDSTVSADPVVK
UniProt O75132: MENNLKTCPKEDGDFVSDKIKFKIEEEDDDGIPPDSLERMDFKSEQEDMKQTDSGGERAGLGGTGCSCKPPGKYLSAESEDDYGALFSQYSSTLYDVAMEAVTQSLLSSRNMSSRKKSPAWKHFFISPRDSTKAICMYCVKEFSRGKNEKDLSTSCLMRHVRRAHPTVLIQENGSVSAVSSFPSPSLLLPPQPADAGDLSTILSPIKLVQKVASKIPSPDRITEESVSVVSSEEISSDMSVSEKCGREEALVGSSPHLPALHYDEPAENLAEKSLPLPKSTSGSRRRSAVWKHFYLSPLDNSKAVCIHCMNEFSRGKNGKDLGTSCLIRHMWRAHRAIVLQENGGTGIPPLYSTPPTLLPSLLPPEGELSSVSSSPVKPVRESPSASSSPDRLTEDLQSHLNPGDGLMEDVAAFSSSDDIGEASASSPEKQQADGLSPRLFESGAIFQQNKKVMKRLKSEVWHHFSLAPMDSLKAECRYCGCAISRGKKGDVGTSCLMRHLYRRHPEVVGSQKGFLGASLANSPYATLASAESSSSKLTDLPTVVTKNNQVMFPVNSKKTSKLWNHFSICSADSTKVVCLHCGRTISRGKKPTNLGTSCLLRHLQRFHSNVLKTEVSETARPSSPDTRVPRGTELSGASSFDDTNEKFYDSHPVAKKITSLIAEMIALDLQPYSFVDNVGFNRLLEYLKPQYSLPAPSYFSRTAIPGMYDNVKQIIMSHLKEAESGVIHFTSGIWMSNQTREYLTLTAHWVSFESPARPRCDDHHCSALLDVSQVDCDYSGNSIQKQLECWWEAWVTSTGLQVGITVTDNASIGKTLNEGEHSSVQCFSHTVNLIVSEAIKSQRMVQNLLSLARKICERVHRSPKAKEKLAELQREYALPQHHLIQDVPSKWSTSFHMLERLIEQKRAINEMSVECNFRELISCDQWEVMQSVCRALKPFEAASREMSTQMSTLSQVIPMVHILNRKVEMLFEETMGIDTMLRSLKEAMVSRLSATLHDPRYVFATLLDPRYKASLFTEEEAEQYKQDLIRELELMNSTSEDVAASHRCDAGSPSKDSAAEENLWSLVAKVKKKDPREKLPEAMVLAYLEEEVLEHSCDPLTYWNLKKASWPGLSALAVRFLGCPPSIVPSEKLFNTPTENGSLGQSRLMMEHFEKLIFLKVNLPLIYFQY
UniProt O43379: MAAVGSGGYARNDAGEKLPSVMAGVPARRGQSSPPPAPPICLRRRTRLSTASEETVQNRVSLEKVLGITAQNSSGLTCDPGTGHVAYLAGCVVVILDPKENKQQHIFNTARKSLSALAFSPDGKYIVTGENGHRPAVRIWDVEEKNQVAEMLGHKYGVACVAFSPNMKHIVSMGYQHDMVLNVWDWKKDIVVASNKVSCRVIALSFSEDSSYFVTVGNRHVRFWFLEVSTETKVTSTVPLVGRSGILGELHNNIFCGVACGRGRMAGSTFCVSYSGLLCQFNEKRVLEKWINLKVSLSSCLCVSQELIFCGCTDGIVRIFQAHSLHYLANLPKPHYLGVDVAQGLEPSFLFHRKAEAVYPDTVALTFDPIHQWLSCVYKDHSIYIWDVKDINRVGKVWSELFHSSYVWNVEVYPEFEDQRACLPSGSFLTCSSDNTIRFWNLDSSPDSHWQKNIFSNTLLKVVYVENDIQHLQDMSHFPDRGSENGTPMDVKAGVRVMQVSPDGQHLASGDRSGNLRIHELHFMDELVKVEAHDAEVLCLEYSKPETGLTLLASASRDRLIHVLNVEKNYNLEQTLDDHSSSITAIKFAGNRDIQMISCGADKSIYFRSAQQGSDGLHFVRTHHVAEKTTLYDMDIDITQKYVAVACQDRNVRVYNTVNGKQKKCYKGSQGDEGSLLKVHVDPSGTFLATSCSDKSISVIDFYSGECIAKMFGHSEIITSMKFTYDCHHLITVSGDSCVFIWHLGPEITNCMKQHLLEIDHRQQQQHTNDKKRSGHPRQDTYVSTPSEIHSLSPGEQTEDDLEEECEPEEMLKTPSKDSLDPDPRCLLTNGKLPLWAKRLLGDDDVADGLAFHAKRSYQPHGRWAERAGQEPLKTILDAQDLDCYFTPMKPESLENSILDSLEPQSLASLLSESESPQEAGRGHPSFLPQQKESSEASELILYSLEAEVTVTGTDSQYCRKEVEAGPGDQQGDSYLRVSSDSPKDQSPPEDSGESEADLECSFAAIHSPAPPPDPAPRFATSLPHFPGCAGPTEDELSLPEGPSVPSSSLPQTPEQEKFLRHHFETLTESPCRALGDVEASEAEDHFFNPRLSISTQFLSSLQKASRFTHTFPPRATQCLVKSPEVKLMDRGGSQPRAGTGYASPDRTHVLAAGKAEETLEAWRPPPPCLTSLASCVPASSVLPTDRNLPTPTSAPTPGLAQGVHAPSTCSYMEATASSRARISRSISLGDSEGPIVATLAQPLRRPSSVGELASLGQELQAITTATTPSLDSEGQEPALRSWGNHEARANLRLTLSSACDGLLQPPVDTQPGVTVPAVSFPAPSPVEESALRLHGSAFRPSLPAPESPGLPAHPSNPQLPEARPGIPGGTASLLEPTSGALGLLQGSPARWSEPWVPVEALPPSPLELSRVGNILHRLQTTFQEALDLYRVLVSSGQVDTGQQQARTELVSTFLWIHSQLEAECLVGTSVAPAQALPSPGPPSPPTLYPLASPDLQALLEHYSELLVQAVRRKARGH
UniProt Q86T24: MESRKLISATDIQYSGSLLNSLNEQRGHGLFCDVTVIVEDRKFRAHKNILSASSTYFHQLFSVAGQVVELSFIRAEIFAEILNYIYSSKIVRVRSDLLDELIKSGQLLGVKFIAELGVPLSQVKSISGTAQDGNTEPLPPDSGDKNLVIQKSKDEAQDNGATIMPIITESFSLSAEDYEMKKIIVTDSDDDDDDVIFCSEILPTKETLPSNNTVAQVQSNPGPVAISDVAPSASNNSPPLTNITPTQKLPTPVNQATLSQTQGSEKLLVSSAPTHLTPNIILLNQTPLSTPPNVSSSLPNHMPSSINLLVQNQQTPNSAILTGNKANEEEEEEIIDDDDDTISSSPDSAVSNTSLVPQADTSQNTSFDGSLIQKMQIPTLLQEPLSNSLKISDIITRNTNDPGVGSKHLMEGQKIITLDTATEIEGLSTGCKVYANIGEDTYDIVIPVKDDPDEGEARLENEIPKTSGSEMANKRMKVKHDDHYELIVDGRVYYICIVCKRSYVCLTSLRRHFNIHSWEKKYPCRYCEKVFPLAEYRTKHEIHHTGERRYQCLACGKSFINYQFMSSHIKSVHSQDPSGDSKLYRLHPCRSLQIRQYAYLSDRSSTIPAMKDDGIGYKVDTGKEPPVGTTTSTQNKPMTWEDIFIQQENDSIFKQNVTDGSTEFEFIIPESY

Row | Target | log2 mean competition ratio
1 | VPS4B C240 (UniProt O75351) | 0.25
2 | VWA8 C162 (UniProt A3KMH1) | -0.157
3 | WASHC4 C936 (UniProt Q2M389) | -0.101
4 | ZBED4 C156 (UniProt O75132) | 0.266
5 | VPS4B C62 (UniProt O75351) | 0.135
6 | XPO5 C1052 (UniProt Q9HAV4) | 0.19
7 | WNK3 C278 (UniProt Q9BYP7) | -0.0785
8 | WDR62 C826 (UniProt O43379) | 0.263
9 | ZC3H7A C506 (UniProt Q8IWR0) | 0.0828
10 | ZBTB33 C431 (UniProt Q86T24) | 0.201
